# Patent US20070032461A1, “1,3 Aclyated 24-keto-vitamin d3 compounds and methods of use thereof” (BioXell S.p.A., priority 2003, published 2007)
# At least one structure is not confirmed: it was looked up by name or label, or the drawing left a doubt.
# Test system: ILT3 surface molecule expression on immature dendritic cells
# Test: ILT3 upregulation on monocyte-derived immature dendritic cells, flow cytometric analysis
# Format: cell-based, human
# Details: immature dendritic cells cultured 24 hours with graded doses, up to 1000 nM
# Description: Immature dendritic cells (DC) were prepared as described in Romani, N. et al. (Romani, N. et al. (1996) J. Immunol. Meth. 196:137). Briefly, peripheral blood mononuclear cells (PBMCs) were obtained from a buffy coat by ficoll-hypaque gradient (Pharmacia Biotec AB, Upsala, Sweden) and monocytes isolated from PBMCs by negative selected with a monocyte isolation kit (Milteny, Biotech, Bergish Gladblach, Germany). After isolation, monocytes were cultured for 6 to 7 days at a cell density of 1-2×10^6 in RPMI medium supplemented with 5% FetalClone I (Hyclone Laboratories, Logan, Utah) 2 mM L-glutamine, […], 1 mM sodium pyruvate and 1% nonessential amino acids, containing 800 U/ml GM-CSF (Mielogen 300, Schering-Plough) and 10 ng/ml interleukin (IL)-4 (PharMingen, San Diego, Calif.). Every other day, approximately 20% of the medium was removed and replaced by the same volume of fresh medium containing GM-CSF and IL-4. […]
# Immunoglobulin-Hike transcript-3 upregulation was evaluated by flow cytometric analysis. […] Cells were then analyzed with a FACScan® flow cytometer using a Cell Quests software program (both from Beckton Dickinson, Mountain View, Calif.).
compound,measurement,value
"C[C@@H]1C[C@H]2[C@@H]3CCC4=CC(=O)C=C[C@]4(C)[C@@]3(F)[C@@H](O)C[C@]2(C)[C@@]1(O)C(=O)CO [DEX, Dexamethasone]",ILT3 expression on cell surface,fail to upregulate
